This note sets out measurements from publication PMC3447774, “Genes Encoding Cher-TPR Fusion Proteins Are Predominantly Found in Gene Clusters Encoding Chemosensory Pathways with Alternative Cellular Functions” (PLoS ONE, 2012).

Results are given in words; binding and its absence hold for the method and conditions named.

The target of test [1] is WspC-Pp (CheR-TPR methyltransferase WspC of Pseudomonas putida KT2440, ORF PP1490) (Pseudomonas putida KT2440) (UniProt Q88MS8). Kind of test: AUC; sedimentation velocity, 48000 rpm, 20°C, 50 mM Tris/HCl pH 8.0, 300 mM NaCl, 1 µM DTT; protein 0.25 to 2 mg/ml; without and with SAM (500 µM) or SAH (50 µM); both purified.
The target is the same in test [2]. The test can be described thus: AUC; sedimentation equilibrium, short column (85 µl), 12000 and 15000 rpm, 20°C; fitted as an ideally sedimenting single solute; both purified.

B1: WspC-Pp (CheR-TPR methyltransferase WspC of Pseudomonas putida KT2440, ORF PP1490) (enzyme, UniProt Q88MS8 1-424)
chain: MNEQRFFRFLRERIGLDVESVGAPMVERALRQRCVAAGAMDLDDYWLRLQQSADEQQALIEAVIVPETWFFRYPESFTALASLAHKRLAQLAGARPLRLLSLPCSTGEEPYSLAMALFDAGMAPGAFLVDGMDISPSSVAKAGQAVYGRNAFRGSELGFRERYFDALDEGHRLHERVRQQVSLRVGNVLDPALASRDGLYDFVFCRNLLIYFDVPTQQRVFEVLKRLLHPQGVLFIGPAEGSLLARMGMRPLGIAQSFAYVRHEGDSAPLAAAPAQTAKRAFTTLPAPVYPQPSVPLPRSRRVLPVAARPARAREHSHEGASELLAGIARLANAGASEQARSECQRYLSQYPPSAQVYYWLGLLSDTEGDAQQALSHYRKALYLEPQHPEALVHLAALLAAQGDLAGARRLQERAARAGRESER
Take B1: the binding result in test [1] was “no binding (tested: 0.25 to 2 mg/ml)”; in test [2], “no binding”.
